# Some of the results follow.
# B1: GS13599A-bth-520-23-520 (Bacteroides thetaiotaomicron) (protein)
# chain: SEDTMDRINKDHDHTTSVASRFILADVITSTAFSNASGDINTYASSYIEYEVGVDNQLYYAEVRENEPSSSSTFNNSWNGIYSSLKNARIIIDQCGEGGRDHGNDVTRGMAEVMAAYNCALIADFFGDAPCSQAALVDEKGSPVYMTPKMDTQQEIYTQIISYLDDAIANLQKEDLADVTEQDFLYAGDADKWLKFAYGLKARYTMRLINRSSNKSADYEKVLDYVSKSFTSADDQAAFDIYDSNNINPFYGFYNSRAGFGASTSLGTKLLAYNDPRANRAFFTPIVDKKRSQVAANDPSLVPAPNGSPDQSTSKYGISAFVYAKTAPTLLMSYHELMFLKAEALCRLNRDAEDALKEAVVAGLLNAENSISIAIKELGSGLNTNSSEVITETSAGKYFDDVVKAKYAANPLQETMIQKYLAMWGASGEATETYNDFRRMKGLNENFITLTNPNNSSKFPLRYPYGNSDTAANPEVKAAYGNGDYVYSEPVWWAGGSR
# Legend:
# Experiment in all cases: glycan array binding signal (z-score within array); higher = stronger binding
# Settings in all cases: glycan notation: IUPAC condensed, linker removed
# [1] = target: Neu5Ac(a2-6)Gal(b1-4)GlcNAc(b1-3)Gal(b1-4)GlcNAc(b1-3)GalNAc
# In short: (§1)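 Glycan array data were curated from 3228 arrays in the Consortium for Functional Glycomics database and kept only where the protein sequence was available. Glycan names were converted to IUPAC-condensed notation, and columns mapping to the same glycan were averaged. The binding signal is a within-array Z-score, averaged across arrays of the same protein sequence at different concentrations or buffers and across linkers. Negative Z-scores can be read as non-binding.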
# [2] = target: Neu5Ac(a2-6)Gal(b1-4)GlcNAc(b1-3)Gal(b1-4)GlcNAc(b1-3)[Neu5Ac(a2-6)Gal(b1-4)GlcNAc(b1-3)Gal(b1-4)GlcNAc(b1-6)]GalNAc
# In short: as §1
# [3] = target: Neu5Ac(a2-6)Gal(b1-4)GlcNAc(b1-3)Gal(b1-4)GlcNAc(b1-6)[Gal(b1-3)]GalNAc
# In short: as §1
# [4] = target: Neu5Ac(a2-6)Gal(b1-4)GlcNAc(b1-3)Gal(b1-4)[Fuc(a1-3)]GlcNAc(b1-3)Gal(b1-4)[Fuc(a1-3)]GlcNAc
# In short: as §1
# [5] = target: Neu5Ac(a2-6)Gal(b1-4)GlcNAc(b1-3)GalNAc
# In short: as §1
# [6] = target: Neu5Ac(a2-6)Gal(b1-4)GlcNAc(b1-3)[Neu5Ac(a2-6)Gal(b1-4)GlcNAc(b1-6)]GalNAc
# In short: as §1
# [7] = target: Neu5Ac(a2-6)Gal(b1-4)GlcNAc(b1-6)GalNAc
# In short: as §1
# [8] = target: Neu5Ac(a2-6)Gal(b1-4)GlcNAc(b1-6)[Gal(b1-3)GlcNAc(b1-3)]Gal(b1-4)Glc
# In short: as §1
# [9] = target: Neu5Ac(a2-6)Gal(b1-4)GlcNAc(b1-6)[Gal(b1-3)]GalNAc
# In short: as §1
# [10] = target: Neu5Ac(a2-6)Gal(b1-4)GlcNAc6S
# In short: as §1
# Neu5Ac(a2-6)GalNAc = target: Neu5Ac(a2-6)GalNAc
# In short: as §1
# [11] = target: Neu5Ac(a2-6)GalNAc(b1-4)GlcNAc
# In short: as §1
# [12] = target: Neu5Ac(a2-6)GalNAc(b1-4)GlcNAc6S
# In short: as §1
# [13] = target: Neu5Ac(a2-6)GlcNAc(b1-4)GlcNAc
# In short: as §1
# [14] = target: Neu5Ac(a2-6)GlcNAc(b1-4)GlcNAc(b1-4)GlcNAc
# In short: as §1
# Neu5Ac(a2-8)Neu5Ac = target: Neu5Ac(a2-8)Neu5Ac
# In short: as §1
# [15] = target: Neu5Ac(a2-8)Neu5Ac(a2-3)Gal(b1-3)GalNAc(b1-4)[Neu5Ac(a2-3)]Gal(b1-4)Glc
# In short: as §1
# [16] = target: Neu5Ac(a2-8)Neu5Ac(a2-3)Gal(b1-3)GalNAc(b1-4)[Neu5Ac(a2-8)Neu5Ac(a2-3)]Gal(b1-4)Glc
# In short: as §1
# [17] = target: Neu5Ac(a2-8)Neu5Ac(a2-3)Gal(b1-4)Glc
# In short: as §1
# [18] = target: Neu5Ac(a2-8)Neu5Ac(a2-3)Gal(b1-4)GlcNAc
# In short: as §1
# [19] = target: Neu5Ac(a2-8)Neu5Ac(a2-3)[Gal(b1-3)GalNAc(b1-4)]Gal(b1-4)Glc
# In short: as §1
# [20] = target: Neu5Ac(a2-8)Neu5Ac(a2-3)[GalNAc(b1-4)]Gal(b1-4)Glc
# In short: as §1
# [21] = target: Neu5Ac(a2-8)Neu5Ac(a2-8)Neu5Ac
# In short: as §1
# [22] = target: Neu5Ac(a2-8)Neu5Ac(a2-8)Neu5Ac(a2-3)Gal(b1-4)Glc
# In short: as §1
# [23] = target: Neu5Ac(a2-8)Neu5Ac(a2-8)Neu5Ac(a2-3)[Gal(b1-3)GalNAc(b1-4)]Gal(b1-4)Glc
# In short: as §1
# [24] = target: Neu5Ac(a2-8)Neu5Ac(a2-8)Neu5Ac(a2-3)[GalNAc(b1-4)]Gal(b1-4)Glc
# In short: as §1
# [25] = target: Neu5Ac(a2-8)Neu5Ac(a2-8)Neu5Ac(a2-8)Neu5Ac(a2-3)[GalNAc(b1-4)]Gal(b1-4)Glc
# In short: as §1
# [26] = target: Neu5Ac(a2-8)Neu5Gc(a2-3)Gal(b1-4)GlcNAc
# In short: as §1
# [27] = target: Neu5Ac(b2-6)Gal(b1-4)GlcNAc
# In short: as §1
# Neu5Ac(b2-6)GalNAc = target: Neu5Ac(b2-6)GalNAc
# In short: as §1
# [28] = target: Neu5Ac9Ac(a2-3)Gal(b1-3)GlcNAc
# In short: as §1
# [29] = target: Neu5Ac9Ac(a2-3)Gal(b1-4)GlcNAc
# In short: as §1
# [30] = target: Neu5Ac9Ac(a2-6)Gal(b1-4)GlcNAc
# In short: as §1
# [31] = target: Neu5Gc(a2-3)Gal(b1-3)GlcNAc
# In short: as §1
# [32] = target: Neu5Gc(a2-3)Gal(b1-3)[Fuc(a1-4)]GlcNAc
# In short: as §1
# Neu5Gc(a2-3)Gal(b1-4)Glc = target: Neu5Gc(a2-3)Gal(b1-4)Glc
# In short: as §1
# [33] = target: Neu5Gc(a2-3)Gal(b1-4)GlcNAc
# In short: as §1
# [34] = target: Neu5Gc(a2-3)Gal(b1-4)GlcNAc(b1-3)Gal(b1-4)GlcNAc(b1-2)Man(a1-3)[Neu5Gc(a2-3)Gal(b1-4)GlcNAc(b1-3)Gal(b1-4)GlcNAc(b1-2)Man(a1-6)]Man(b1-4)GlcNAc(b1-4)GlcNAc
# In short: as §1
# [35] = target: Neu5Gc(a2-3)Gal(b1-4)[Fuc(a1-3)]GlcNAc
# In short: as §1
# [36] = target: Neu5Gc(a2-6)Gal(b1-4)GlcNAc
# In short: as §1
# Neu5Gc(a2-6)GalNAc = target: Neu5Gc(a2-6)GalNAc
# In short: as §1
# [37] = target: Neu5Gc(a2-8)Neu5Ac(a2-3)Gal(b1-4)GlcNAc
# In short: as §1
# [38] = target: Neu5Gc(a2-8)Neu5Gc(a2-3)Gal(b1-4)GlcNAc
# In short: as §1
# [39] = target: Neu5Gc(a2-8)Neu5Gc(a2-3)Gal(b1-4)GlcNAc(b1-3)Gal(b1-4)GlcNAc
# In short: as §1
# [40] = target: Neu5Gc(a2-8)Neu5Gc(a2-6)Gal(b1-4)GlcNAc
# In short: as §1
# [41] = target: Neu5Gc(b2-6)Gal(b1-4)GlcNAc
# In short: as §1
binder,measurement,setting,value
B1,glycan array binding signal (z-score),[1],-0.961
same,glycan array binding signal (z-score),[2],-0.682
same,glycan array binding signal (z-score),[3],-0.505
same,glycan array binding signal (z-score),[4],0.213
same,glycan array binding signal (z-score),[5],-0.622
same,glycan array binding signal (z-score),[6],0.2
same,glycan array binding signal (z-score),[7],0.685
same,glycan array binding signal (z-score),[8],-0.52
same,glycan array binding signal (z-score),[9],0.937
same,glycan array binding signal (z-score),[10],-0.962
same,glycan array binding signal (z-score),Neu5Ac(a2-6)GalNAc,-1.6
same,glycan array binding signal (z-score),[11],-0.468
same,glycan array binding signal (z-score),[12],-1.6
same,glycan array binding signal (z-score),[13],0.611
same,glycan array binding signal (z-score),[14],-0.33
same,glycan array binding signal (z-score),Neu5Ac(a2-8)Neu5Ac,-0.118
same,glycan array binding signal (z-score),[15],0.429
same,glycan array binding signal (z-score),[16],2.19
same,glycan array binding signal (z-score),[17],-1.46
same,glycan array binding signal (z-score),[18],-0.704
same,glycan array binding signal (z-score),[19],-1.45
same,glycan array binding signal (z-score),[20],0.221
same,glycan array binding signal (z-score),[21],-0.04
same,glycan array binding signal (z-score),[22],0.242
same,glycan array binding signal (z-score),[23],1.71
same,glycan array binding signal (z-score),[24],-1.68
same,glycan array binding signal (z-score),[25],0.261
same,glycan array binding signal (z-score),[26],-0.895
same,glycan array binding signal (z-score),[27],-0.098
same,glycan array binding signal (z-score),Neu5Ac(b2-6)GalNAc,-0.02
same,glycan array binding signal (z-score),[28],-1.21
same,glycan array binding signal (z-score),[29],-0.377
same,glycan array binding signal (z-score),[30],-0.821
same,glycan array binding signal (z-score),[31],-0.045
same,glycan array binding signal (z-score),[32],0.04
same,glycan array binding signal (z-score),Neu5Gc(a2-3)Gal(b1-4)Glc,-1.63
same,glycan array binding signal (z-score),[33],-0.966
same,glycan array binding signal (z-score),[34],2.04
same,glycan array binding signal (z-score),[35],-0.275
same,glycan array binding signal (z-score),[36],-0.407
same,glycan array binding signal (z-score),Neu5Gc(a2-6)GalNAc,-0.635
same,glycan array binding signal (z-score),[37],-0.56
same,glycan array binding signal (z-score),[38],-1.13
same,glycan array binding signal (z-score),[39],-0.631
same,glycan array binding signal (z-score),[40],-1.24
same,glycan array binding signal (z-score),[41],-0.127

# Given with bars between the fields: part of the list above.
binder | measurement | setting | value
B1 | glycan array binding signal (z-score) | [26] | -0.895
same | glycan array binding signal (z-score) | [27] | -0.098
same | glycan array binding signal (z-score) | Neu5Ac(b2-6)GalNAc | -0.02

# Source: the supplement of paper PMC8728848
